In article PMC9731518 (Biomedical chromatography : BMC, 2022):
Like-named read-outs stand apart in the source and are kept apart here.

Legend:
[1] = human plasma, n=4
[2] = DMSO, n=4
[3] = n=6
clinical = settings: human, in vivo, po, 20 mg
in vitro = settings: human
[4] = ref Yap, et al. 2020b, cited from earlier work

C[C@@H]1COCCN1c1cc(-c2ccnn2C)c2ccnc(-c3ccn[nH]3)c2n1 [elimusertib, Elimusertib]
Stability (%) ([1]; 3 freeze-thaw cycles −80 °C, 40 ng/mL (QCL)): 100.4% | Stability (%) ([1]; 3 freeze-thaw cycles −80 °C, 200 ng/mL (QCM)): 101.1% | Stability (%) ([1]; 3 freeze-thaw cycles −80 °C, 4000 ng/mL (QCH)): 100.1% | Stability (%) ([1]; 12 months at −80 °C, 40 ng/mL (QCL)): 103.9% | Stability (%) ([1]; 12 months at −80 °C, 200 ng/mL (QCM)): 100.6% | Stability (%) ([1]; 12 months at −80 °C, 4000 ng/mL (QCH)): 92.9% | Stability (%) ([1]; 4 h ambient temp, 40 ng/mL (QCL)): 105.2% | Stability (%) ([1]; 4 h ambient temp, 200 ng/mL (QCM)): 102.0% | Stability (%) ([1]; 4 h ambient temp, 4000 ng/mL (QCH)): 104.5% | Stock solution stability ([2]; 12 months at −80 °C): 91.8% | Stock solution stability ([2]; 6 h at RT): 100.8% | Stability (%) ([3]; 72 h extract reinjection vs fresh calibrators, 40 ng/mL (QCL)): 93.6% | Stability (%) ([3]; 72 h extract reinjection vs fresh calibrators, 200 ng/mL (QCM)): 91.4% | Stability (%) ([3]; 72 h extract reinjection vs fresh calibrators, 4000 ng/mL (QCH)): 92.3% | Stability (%) ([3]; 72 h extract reinjection vs reinjected calibrators, 40 ng/mL (QCL)): 96.3% | Stability (%) ([3]; 72 h extract reinjection vs reinjected calibrators, 200 ng/mL (QCM)): 103.3% | Stability (%) ([3]; 72 h extract reinjection vs reinjected calibrators, 4000 ng/mL (QCH)): 102.4% | AUC(0-inf) (clinical): 4740 ng·h/mL | half-life (clinical): 7.4 h | AUC(0-t) (clinical; AUC0-6.5, one patient, 20 mg PO, non-compartmental): 2370 ng·h/mL | recovery at 12 months (in vitro): 92.9 to 104% | mean multiple-dose Cmax ([4]; 40 mg BID (MTD), n=2): 1,840 ng/mL | multiple dose Cmax ([4]; 80 mg BID, highest investigated dose, n=1): 3,255 ng/mL | Cmax ([4]; elimusertib administered alone, same dose level (20 mg)): 569 ng/mL | mean AUC0-12 ([4]; same dose level (20 mg)): 4,060 ng•h/mL
